Experimental data from PubChem BioAssay AID1487 (National Center for Advancing Translational Sciences (NCATS), 2009).
The other results are listed elsewhere or left out. These are further read-outs of the screen, such as a control signal, another cell line or another target. No call is given for them. Compounds called inactive in the main read-out are mostly missing here. The note in brackets gives the kind of curve behind each potency; many fits are weak.

Experiment: qHTS Assay for Modulators of Lamin A Splicing
Settings: HeLa LMNA splicing GFP/RFP minigene ratio, 48 h
Outline: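 S3 HeLa stable clones carrying a lamin A-EGFP splicing minigene plus DsRed2 were seeded at 600 cells/well in Opti-MEM with 2% FBS, pin-dosed and incubated 48 h at 37°C. Acumen cytometry (488 nm) gave the GFP/RFP total-intensity ratio.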

[1] = measured here: GFP splicing reporter channel
[2] = measured here: RFP viability control channel

| SMILES | AC50 [1] | AC50 [2] |
| --- | --- | --- |
| Cc1cc(C)c(NC(=O)CSc2n[nH]c(-c3ccccc3Cl)n2)c(C)c1 | 0.708 µM [rising, single point] | – |
| COc1cccc(OC)c1C(=O)NNC(=O)c1ccccc1-n1cccc1 | 0.0794 µM [rising, full curve, poor fit] | – |
| Cc1[nH][nH]c(=O)c1C(c1c(C)[nH][nH]c1=O)c1cn(Cc2ccc(Cl)c(Cl)c2)c2ccccc12 | 35.5 µM [rising, single point] | 11.2 µM [rising, partial curve] |
| Nc1nc2ccc(C(=O)Nc3ccccc3)cc2s1 | – | 2 µM [rising, full curve, poor fit] |
| Cc1ccc(C2=CC(c3ccccc3C)n3c(nc4ccccc43)N2)cc1 (centres undefined) | 0.0141 µM [rising, full curve, poor fit] | 25.1 µM [rising, partial curve] |
| Cc1ccc(NC(=O)CS(=O)CC(=O)N(CC(=O)NC2CCCC2)c2cccc(C)c2C)cc1 (centres undefined) | 14.1 µM [rising, single point] | – |
| COc1ccc(OC)c(C(C)NC(=O)Nc2cccc(C(C)=O)c2)c1 (centres undefined) | 12.6 µM [falling, partial curve, poor fit] | 20 µM [falling, partial curve] |
| COc1ccccc1NC(=O)Cn1cnc2c(cnn2-c2ccccc2)c1=O | 5.62 µM [rising, partial curve] | 12.6 µM [rising, partial curve] |
| O=C(NNC(=S)Nc1ccc(Br)cc1Cl)c1ccco1 | – | 35.5 µM [rising, single point] |
| N#CC(c1ccc(=O)[nH]n1)c1ccc(Cl)cc1Cl (centres undefined) | – | 2.51 µM [falling, single point] |
| O=C(O)c1cccc(N/N=C/c2sc(N3CCOCC3)nc2-c2ccccc2)c1 | – | 7.94 µM [falling, partial curve] |
| O=C(CCN1CCN(c2ccc(F)cc2)CC1)Nc1ccc(F)cc1 | 22.4 µM [rising, single point] | 31.6 µM [rising, single point] |
| Cc1ccc(-c2nn(C)c(=O)c3ccccc23)cc1CNC(=O)CSc1nc2ccccc2o1 | – | 12.6 µM [rising, single point] |
| CCCCNCc1cc(OC)c(OCC(N)=O)cc1Br | – | 25.1 µM [falling, partial curve, poor fit] |
| N=C(N)c1ccc(/C=C/c2ccc(C(=N)N)cc2O)cc1 | 20 µM [falling, single point] | – |
| CC(CC(=O)O)CC(=O)Nc1cc([N+](=O)[O-])ccc1O (centres undefined) | 1.78 µM [falling, full curve, poor fit] | 5.01 µM [falling, full curve, poor fit] |
| CSc1c(-c2ccccn2)c(N)nn1C(=O)C1CC1 | – | 0.0355 µM [falling, full curve, poor fit] |
| O=C(Cc1ccc(-c2ccccc2)cc1)NCc1cccnc1 | – | 3.55 µM [falling, single point] |

Some of these compounds in order of molar mass, descending.

| SMILES | AC50 [1] | AC50 [2] |
| --- | --- | --- |
| Cc1ccc(C2=CC(c3ccccc3C)n3c(nc4ccccc43)N2)cc1 (centres undefined) | 0.0141 µM [rising, full curve, poor fit] | 25.1 µM [rising, partial curve] |
| CCCCNCc1cc(OC)c(OCC(N)=O)cc1Br | – | 25.1 µM [falling, partial curve, poor fit] |
| N=C(N)c1ccc(/C=C/c2ccc(C(=N)N)cc2O)cc1 | 20 µM [falling, single point] | – |

The results go on:

| SMILES | AC50 [1] | AC50 [2] |
| --- | --- | --- |
| Cc1ccc(S(=O)(=O)NCc2ccc(C(=O)N3CCN(c4ccccn4)CC3)cc2)cc1 | 11.2 µM [rising, partial curve] | 20 µM [rising, partial curve] |
| O=C(OCc1nnc(-c2ccccc2)o1)c1cn(-c2ccccc2)nc1-c1ccccc1 | 12.6 µM [rising, single point] | 31.6 µM [rising, single point] |
| CCn1c(SCC(=O)NCc2ccco2)nnc1C(C)C | – | 35.5 µM [falling, single point] |
| Cc1ccc2nc(N3CCN(C(=O)c4cccs4)CC3)c(C#N)cc2c1 | – | 22.4 µM [rising, single point] |
| O=C(Nc1ccccc1)N1CCCN(c2c(Cl)cncc2Cl)CC1 | 3.55 µM [rising, single point] | – |
| Clc1ccc(CSc2ccc(-c3ccccn3)nn2)cc1 | 35.5 µM [rising, single point] | 35.5 µM [rising, single point] |
| O=c1oc2ccccc2n1CSc1nc2ccccc2s1 | 11.2 µM [rising, partial curve, poor fit] | 15.8 µM [rising, single point] |
| CCCC(=O)Nc1ccccc1NC(=O)c1ccc(OC(C)=O)cc1 | 31.6 µM [falling, partial curve, poor fit] | – |
| CNC(=S)N/N=C/c1ccc(N2CCOCC2)s1 | 0.282 µM [falling, full curve, poor fit] | 0.355 µM [falling, full curve, poor fit] |
| CCCCc1ccc(Nc2cc(C)nc(-n3nc(C)cc3C)n2)cc1 | – | 10 µM [falling, partial curve] |
| Cc1cc(C)n(CCN(C)Cc2nc(Cc3ccccc3F)no2)n1 | – | 0.00447 µM [falling, full curve, poor fit] |
| O=C(CSc1nnc(CNC(=O)c2ccccc2F)o1)c1ccc(Cl)cc1 | – | 31.6 µM [rising, single point] |
| CSc1nnc2c(n1)c(C)nn2-c1cccc(C)c1 | – | 6.31 µM [rising, single point] |
| O=C(NCC(c1cccnc1)N1CCc2ccccc2C1)C(=O)Nc1ccccc1F (centres undefined) | 6.31 µM [rising, partial curve, poor fit] | 12.6 µM [rising, partial curve, poor fit] |
| CSc1ccc(CNC(=O)Cn2c(-c3cccs3)cc3cc(F)ccc32)cc1 | – | 2 µM [rising, partial curve] |
| O=C(/C=C\c1ccc2c(c1)OCO2)NC1CC(=O)N(c2ccccc2)C1 (centres undefined) | 0.00891 µM [rising, full curve, poor fit] | – |
| CC(=O)O[C@]1(C(C)=O)CC[C@H]2[C@@H]3C=C(Cl)C4=CC(=O)[C@@H]5C[C@@H]5[C@]4(C)[C@H]3CC[C@@]21C | – | 20 µM [rising, single point] |
| O=C(/C=C/c1ccc(Cl)cc1Cl)NCc1ccncc1 | 4.47 µM [rising, partial curve] | 11.2 µM [rising, partial curve] |
